Source: article PMC6117270
No constants are given. Whether binding was seen depends on the method and setting. Binding seen in cells or lysates may run through a third protein. Some entries that bind do so weakly or less than the wild type. For some assays here: Tags and fused reporters may be left off the sequences shown.

T1: non-POU domain containing octamer binding (NONO) protein (human (endogenous in NCI-N87, AGS and MKN-45)) (UniProt Q15233)
T1 sequence: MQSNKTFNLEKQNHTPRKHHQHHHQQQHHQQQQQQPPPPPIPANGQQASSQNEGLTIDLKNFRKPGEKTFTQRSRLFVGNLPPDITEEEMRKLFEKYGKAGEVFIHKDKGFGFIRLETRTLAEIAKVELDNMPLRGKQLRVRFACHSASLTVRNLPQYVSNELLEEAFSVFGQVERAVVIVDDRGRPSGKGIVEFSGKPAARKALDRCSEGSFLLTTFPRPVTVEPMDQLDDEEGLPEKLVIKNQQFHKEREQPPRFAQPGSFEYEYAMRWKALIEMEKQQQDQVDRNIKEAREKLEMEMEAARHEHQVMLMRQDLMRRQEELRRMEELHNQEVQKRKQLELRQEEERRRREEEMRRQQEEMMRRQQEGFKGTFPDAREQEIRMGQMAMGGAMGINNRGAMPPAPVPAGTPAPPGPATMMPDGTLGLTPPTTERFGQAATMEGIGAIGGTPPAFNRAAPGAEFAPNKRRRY

T2: FLAG-tagged NONO protein (human) (UniProt Q15233)
T2 sequence: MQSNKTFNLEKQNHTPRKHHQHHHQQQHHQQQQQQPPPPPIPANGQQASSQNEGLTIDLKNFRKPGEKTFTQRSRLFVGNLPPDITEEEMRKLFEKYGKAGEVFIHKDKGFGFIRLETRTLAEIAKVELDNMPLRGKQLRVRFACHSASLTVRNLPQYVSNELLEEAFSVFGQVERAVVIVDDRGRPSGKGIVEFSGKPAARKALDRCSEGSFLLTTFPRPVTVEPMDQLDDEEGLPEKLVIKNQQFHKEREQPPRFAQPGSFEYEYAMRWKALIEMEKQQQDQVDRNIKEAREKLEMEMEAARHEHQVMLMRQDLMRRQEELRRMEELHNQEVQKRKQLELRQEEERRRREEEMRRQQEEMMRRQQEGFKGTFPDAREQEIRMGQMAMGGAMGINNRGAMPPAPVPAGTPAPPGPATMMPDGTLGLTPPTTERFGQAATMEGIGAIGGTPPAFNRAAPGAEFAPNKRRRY


Key:
[1] = target: T1, non-POU domain containing octamer binding (NONO) protein (human (endogenous in NCI-N87, AGS and MKN-45)); assay: co-IP; endogenous proteins, IP and western blot in NCI-N87 and AGS cells; also NCI-N87 and MKN-45 cells stably transfected with mock, pancEts-1, scramble shRNA or sh-pancEts-1 #2 (interaction increased and decreased, respectively)
[2] = target: T2, FLAG-tagged NONO protein (human); assay: co-IP; HA-tagged ERG and FLAG-tagged NONO and their truncates co-transfected into NCI-N87 cells; IP (antibodies for NONO, HA or FLAG) and western blot

Row | binding [1] | Binder | binding [2]
1 | binds | Ets related gene (ERG) (protein, UniProt P11308-3 1-486) MIQTVPDPAAHIKEALSVVSEDQSLFECAYGTPHLAKTEMTASSSSDYGQTSKMSPRVPQQDWLSQPPARVTIKMECNPSQVNGSRNSPDECSVAKGGKMVGSPDTVGMNYGSYMEEKHMPPPNMTTNERRVIVPADPTLWSTDHVRQWLEWAVKEYGLPDVNILLFQNIDGKELCKMTKDDFQRLTPSYNADILLSHLHYLRETPLPHLTSDDVDKALQNSPRLMHARNTGGAAFIFPNTSVYPEATQRITTRPDLPYEPPRRSAWTGHGHPTPQSKAAQPSPSTVPKTEDQRPQLDPYQILGPTSSRLANPGSGQIQLWQFLLELLSDSSNSSCITWEGTNGEFKMTDPDEVARRWGERKSKPNMNYDKLSRALRYYYDKNIMTKVHGKRYAYKFDFHGIAQALQPHPPESSLYKYPSDLPYMGSYHAHPQKMNFVAPHPPALPVTSSSFFAAPNPYWNSPTGGIYPNTRLPTSHMPSHLGTYY | –
2 | – | hemagglutinin (HA)-tagged ERG (protein, UniProt P11308-3 1-486) MIQTVPDPAAHIKEALSVVSEDQSLFECAYGTPHLAKTEMTASSSSDYGQTSKMSPRVPQQDWLSQPPARVTIKMECNPSQVNGSRNSPDECSVAKGGKMVGSPDTVGMNYGSYMEEKHMPPPNMTTNERRVIVPADPTLWSTDHVRQWLEWAVKEYGLPDVNILLFQNIDGKELCKMTKDDFQRLTPSYNADILLSHLHYLRETPLPHLTSDDVDKALQNSPRLMHARNTGGAAFIFPNTSVYPEATQRITTRPDLPYEPPRRSAWTGHGHPTPQSKAAQPSPSTVPKTEDQRPQLDPYQILGPTSSRLANPGSGQIQLWQFLLELLSDSSNSSCITWEGTNGEFKMTDPDEVARRWGERKSKPNMNYDKLSRALRYYYDKNIMTKVHGKRYAYKFDFHGIAQALQPHPPESSLYKYPSDLPYMGSYHAHPQKMNFVAPHPPALPVTSSSFFAAPNPYWNSPTGGIYPNTRLPTSHMPSHLGTYY | binds
